From PubChem BioAssay AID1487 (National Center for Advancing Translational Sciences (NCATS), 2009)
The list shows a part of the results. These are further read-outs of the screen, such as a control signal, another cell line or another target. No call is given for them. Most of these compounds were active or inconclusive in the main read-out, so they are no random draw. Potencies come from curve fits of mixed quality, noted in brackets.

Test: qHTS Assay for Modulators of Lamin A Splicing
Details: HeLa LMNA splicing GFP/RFP minigene ratio, 48 h
Procedure, shortened: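 Read-out is the ratio of GFP to DsRed2 object intensity, acquired by 488 nm laser-scanning cytometry on HeLa lamin A-EGFP minigene reporter cells. Compound incubation 48 hrs at 37 °C in Opti-MEM with 2% FBS; DMSO 0.5% final.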

[1] = measured here: RFP viability control channel
[2] = measured here: GFP splicing reporter channel

SMILES	AC50 [1]	AC50 [2]
O=C(N/N=C/c1ccccn1)c1cccc([N+](=O)[O-])c1	35.5 µM [rising, partial curve, poor fit]	
Cc1ccc(NC(=O)CSc2nc3ccccc3nc2Cc2ccccc2)c(C)c1	10 µM [rising, partial curve, poor fit]	0.0224 µM [rising, full curve, poor fit]
Cc1cc(C(=O)COc2ncnc3sccc23)c(C)n1C1CC1	15.8 µM [falling, partial curve, poor fit]	12.6 µM [falling, partial curve, poor fit]
Cc1cc(NCCCN(C)C)n2nc(-c3cccs3)cc2n1	11.2 µM [rising, partial curve]	
Cc1ccc(CCNC(=O)Cn2ncc3c([nH]c4ccc(C)cc43)c2=O)cc1	0.02 µM [falling, full curve, poor fit]	0.0316 µM [falling, full curve, poor fit]
O=C(N/N=C/c1ccccn1)c1ccc(Br)cc1	31.6 µM [rising, single point]	31.6 µM [rising, single point]
CN(C)CCN(Cc1cc2cc3c(cc2[nH]c1=O)OCO3)C(=S)NCc1ccco1	0.0112 µM [falling, full curve, poor fit]	0.0251 µM [falling, full curve, poor fit]
CN(C)S(=O)(=O)c1ccc(Nc2nc(C3CC3)nc3c2nnn3Cc2ccccc2Cl)cc1	2.51 µM [rising, full curve]	
Cc1csc(NC(=O)CSc2nnc3ncccn23)n1	5.62 µM [rising, partial curve]	0.02 µM [rising, full curve, poor fit]
CN(C)S(=O)(=O)c1ccc(C(=O)Nc2cc(S(=O)(=O)Nc3ccccc3Cl)ccc2N2CCCCC2)cc1	11.2 µM [rising, partial curve]	
Cc1ccc(C(=O)C(=S)N2CCOCC2)cc1	0.00224 µM [rising, full curve, poor fit]	0.02 µM [rising, full curve]
CCCc1[nH]n(-c2ccc(F)cc2)c(=O)c1C=Nc1cccc(F)c1	5.62 µM [falling, single point]	
COc1cccc(C2C=C(c3ccc(OC)cc3OC)Nc3nnnn32)c1 (stereo unspecified)	12.6 µM [rising, partial curve]	
O=C(c1cccs1)N(CC1CCCO1)c1nc(-c2ccccc2)cs1 (stereo unspecified)	12.6 µM [rising, partial curve]	11.2 µM [rising, partial curve]
O=C(N/N=C/c1ccc(Sc2ccccn2)o1)c1cccc([N+](=O)[O-])c1	10 µM [rising, single point]	14.1 µM [rising, single point]
CC1(C)Cc2cccc(C(=O)NCc3ccco3)c2O1	35.5 µM [falling, partial curve, poor fit]	
CCCC[C@H]1C(=O)N(c2ccccc2)N(c2ccc(O)cc2)C1=O	5.01 µM [falling, partial curve]	7.94 µM [falling, partial curve]
O=C(COC(=O)c1ccc(O)cc1)Nc1ncc(Cl)cc1Cl		0.0631 µM [rising, full curve, poor fit]
Cc1ccc(Cl)cc1N1CCN(C(=O)c2cccn3c(=O)c4cc(Cl)ccc4nc23)CC1	22.4 µM [falling, partial curve, poor fit]	35.5 µM [falling, single point]
COc1cc(NC(=O)c2cccs2)c(OC)cc1NC(=O)CCC(=O)Nc1ccc2ncccc2c1	17.8 µM [falling, partial curve, poor fit]	6.31 µM [falling, partial curve, poor fit]
CCc1ccc(NC(=O)c2ccc(F)c(S(=O)(=O)N(C)C3CCCCC3)c2)cc1	0.0224 µM [rising, full curve, poor fit]	
NC(=O)COC(=O)/C=C/c1ccc(S(=O)(=O)N2CCCCCC2)cc1	0.0562 µM [falling, full curve]	2.24 µM [falling, partial curve]
COc1ccc(OC)c(N(CC(=O)NC2CC2)S(=O)(=O)c2ccc(C)cc2)c1	22.4 µM [rising, single point]	
CC(/C=N/NC(=O)c1cc(-c2ccc3ccccc3c2)n[nH]1)=C\c1ccco1	28.2 µM [rising, single point]	
CCc1nc2ccccc2n(CC)c1=O	5.62 µM [rising, single point]	
O=C1CN(C(=O)/C=C/c2ccccc2F)c2ccccc2N1	5.62 µM [rising, single point]	5.62 µM [rising, single point]
COc1ccc2c(c1)CCc1c(C(=O)N(C)c3ccccc3)noc1-2	0.00316 µM [falling, full curve, poor fit]	

Two of these compounds, set out differently.
O=C(c1cccs1)N(CC1CCCO1)c1nc(-c2ccccc2)cs1 (stereo unspecified)
  AC50 [1]: 12.6 µM [rising, partial curve]
  AC50 [2]: 11.2 µM [rising, partial curve]
O=C(N/N=C/c1ccc(Sc2ccccn2)o1)c1cccc([N+](=O)[O-])c1
  AC50 [1]: 10 µM [rising, single point]
  AC50 [2]: 14.1 µM [rising, single point]

Following part

SMILES	AC50 [1]	AC50 [2]
COc1cccc(C=NCCNC(=O)c2nonc2N)c1O		35.5 µM [rising, single point]
Cc1cccc(C)c1-n1c(SCC(=O)Nc2ccc(C(=O)O)cc2)nnc1-c1cccc(S(=O)(=O)N(C)C)c1	0.447 µM [falling, partial curve, poor fit]	0.01 µM [falling, full curve, poor fit]
O=C(Nc1ccc2ccccc2c1)c1ccc(NS(=O)(=O)c2ccc(Br)s2)cc1	35.5 µM [falling, single point]	
Cc1ccc(Cl)cc1-n1ncc2c(NCCCn3ccnc3)ncnc21		0.1 µM [falling, full curve, poor fit]
COc1cc(/C=N\n2nnnc2N)ccc1OCc1ccc(F)cc1	0.141 µM [falling, full curve, poor fit]	
CCOc1ccc(Cc2nnc(SCC(=O)c3ccc(OC)cc3)o2)cc1	14.1 µM [rising, partial curve]	
CCC[C@H]1C(=O)N2C(N(C)C)=Nc3ccc(C)cc3N2C1=O	14.1 µM [falling, single point]	0.00141 µM [falling, full curve, poor fit]
CCc1cccc(NC(=O)c2cnc(SC)nc2-c2ccccc2)c1		35.5 µM [falling, single point]
CC(C)(C)C1CCc2c(sc(NC(=O)C3CC=CCC3C(=O)O)c2C#N)C1 (stereo unspecified)	1 µM [rising, full curve, poor fit]	14.1 µM [rising, single point]
N#CC1=C(N)Oc2nc(-c3ccccc3)[nH]c2C1c1cccnc1 (stereo unspecified)	35.5 µM [falling, single point]	
CCC1=NN(C(=O)c2ccccc2Br)C(O)(c2ccc(Br)cc2)C1 (stereo unspecified)	1.26 µM [rising, full curve, poor fit]	
COCCCn1c(SCCc2ccccc2)nc2cc(OC)c(OC)cc2c1=N	22.4 µM [falling, single point]	31.6 µM [falling, partial curve, poor fit]
Cc1ccc(C(=O)OCC(=O)Nc2ccccc2Sc2ccccc2)cc1C		22.4 µM [rising, partial curve, poor fit]
N#Cc1ccc(C(=O)Nc2ccn(-c3ccccc3)n2)cc1	35.5 µM [rising, single point]	20 µM [rising, partial curve]
CCCCNS(=O)(=O)c1ccc(NC(=O)C(Sc2ccccc2)c2ccccc2)cc1 (stereo unspecified)	20 µM [rising, single point]	
COCCn1c(SCCOc2ccccc2)nc2ccccc2c1=O		5.62 µM [falling, partial curve]
COc1ccc(C2C=C(C34CC5CC(CC(C5)C3)C4)NC(=S)N2)cc1 (stereo unspecified)	15.8 µM [rising, partial curve]	
CN(C)CCC(=O)c1ccc2c(c1)OCO2	4.47 µM [rising, single point]	
CS(=O)(=O)c1ccccc1-c1nc(-c2ccc([N+](=O)[O-])cc2)no1	3.98 µM [falling, full curve, poor fit]	
CCN(Cc1ccccc1)C(=O)CCCOc1ccccc1	17.8 µM [rising, single point]	14.1 µM [rising, single point]
CCC(=O)Nc1ccc(C(=O)CSc2nc3ccc(C)cc3[nH]2)cc1	4.47 µM [falling, full curve, poor fit]	3.16 µM [falling, full curve]
CC(C)(C)c1csc(NC(=O)CSc2nc3ccccc3c(=O)[nH]2)n1	8.91 µM [rising, partial curve]	
Cc1ccc2[nH]cc(C(=O)CCl)c2c1	5.01 µM [rising, single point]	
CN(C)C(C(=O)Nc1cc(Cl)cc(Cl)c1)c1ccccc1 (stereo unspecified)		6.31 µM [rising, partial curve, poor fit]
Cc1ccc(C(=O)NN(C)c2nc3ccccc3nc2C(F)(F)F)cc1	2.82 µM [rising, full curve]	
CC(=O)CC(=O)Nc1ncccn1	0.794 µM [falling, full curve, poor fit]	7.08 µM [falling, partial curve, poor fit]
CCCOc1ccc(C2c3c(oc4cc(C)c(C)cc4c3=O)C(=O)N2CCCN(C)C)cc1 (stereo unspecified)	25.1 µM [rising, single point]	
